Laboratory results reported in PMC7423155.
Results are given in words; binding and its absence hold for the method and conditions named. Binding seen in cells or lysates may run through a third protein. Some entries that bind do so weakly or less than the wild type.

Amino acid sequences for entries named in this document (tags omitted). Residues count along the entry.
UniProt Q96I51, residues 38-464: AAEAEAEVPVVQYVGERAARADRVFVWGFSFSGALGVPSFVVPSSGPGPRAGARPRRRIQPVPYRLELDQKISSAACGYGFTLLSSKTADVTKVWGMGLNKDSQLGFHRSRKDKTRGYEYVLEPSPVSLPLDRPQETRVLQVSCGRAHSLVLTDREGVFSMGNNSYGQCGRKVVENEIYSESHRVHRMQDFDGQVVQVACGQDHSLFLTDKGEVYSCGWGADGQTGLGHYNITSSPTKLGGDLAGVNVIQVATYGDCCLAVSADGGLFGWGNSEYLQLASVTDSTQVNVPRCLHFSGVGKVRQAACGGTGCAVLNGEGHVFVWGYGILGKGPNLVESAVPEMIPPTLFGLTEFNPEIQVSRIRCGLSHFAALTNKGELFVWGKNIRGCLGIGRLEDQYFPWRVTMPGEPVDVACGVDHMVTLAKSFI

B1: TRUB2 (enzyme, UniProt O95900 11-331)
chain: GLFAVYKPPGLKWKHLRDTVELQLLKGLNARKPPAPKQRVRFLLGPMEGSEEKELTLTATSVPSFINHPLVCGPAFAHLKVGVGHRLDAQASGVLVLGVGHGCRLLTDMYNAHLTKDYTVRGLLGKATDDFREDGRLVEKTTYDHVTREKLDRILAVIQGSHQKALVMYSNLDLKTQEAYEMAVRGLIRPMNKSPMLITGIRCLYFAPPEFLLEVQCMHETQKELRKLVHEIGLELKTTAVCTQVRRTRDGFFTLDSALLRTQWDLTNIQDAIRAATPQVAAELEKSLSPGLDTKQLPSPGWSWDSQGPSSTLGLERGAGQ
B2: RPUSD4 (enzyme, UniProt Q96CM3 16-377)
chain: NGQGCGSLFTLVSKPFCAAAAASTAINAQRLAEKLRAQKREQDTKKEPVSTNAVQRRVQEIVRFTRQLQRVHPNVLAKALTRGILHQDKNLVVINKPYGLPVHGGPGVQLCITDVLPILAKMLHGHKAEPLHLCHRLDKETTGVMVLAWDKDMAHQVQELFRTRQVVKKYWAITVHVPMPSAGVVDIPIVEKEAQGQQQHHKMTLSPSYRMDDGKMVKVRRSRNAQVAVTQYQVLSSTLSSALVELQPITGIKHQLRVHLSFGLDCPILGDHKYSDWNRLAPQKLSVGTLKKLGLEQSKARYIPLHLHARQLILPALGSGKEELNLVCKLPRFFVHSLHRLRLEMPNEDQNENNEAKCLGAQ
B3: MTG2 (enzyme, UniProt Q9H4K7 1-406)
chain: MAPARCFSARLRTVFQGVGHWALSTWAGLKPSRLLPQRASPRLLSVGRADLAKHQELPGKKLLSEKKLKRYFVDYRRVLVCGGNGGAGASCFHSEPRKEFGGPDGGDGGNGGHVILRVDQQVKSLSSVLSRYQGFSGEDGGSKNCFGRSGAVLYIRVPVGTLVKEGGRVVADLSCVGDEYIAALGGAGGKGNRFFLANNNRAPVTCTPGQPGQQRVLHLELKTVAHAGMVGFPNAGKSSLLRAISNARPAVASYPFTTLKPHVGIVHYEGHLQIAVADIPGIIRGAHQNRGLGSAFLRHIERCRFLLFVVDLSQPEPWTQVDDLKYELEMYEKGLSARPHAIVANKIDLPEAQANLSQLRDHLGQEVIVLSALTGENLEQLLLHLKVLYDAYAEAELGQGRQPLRW

These binders were tested against STREP2-FLAG-tagged RCC1L^V1 (human) (UniProt Q96I51) (assay: co-IP; STREP2-FLAG-tagged RCC1L isoform as bait, captured on Strep-Tactin Sepharose overnight from trypsin-treated, sucrose gradient-purified HEK mitochondria lysed with 0.8% DDM; 10 washes; elution with 10 mM desthiobiotin; endogenous proteins in the elution found by immunoblot).

**Q.** With B1 as the binder, how does the binding read?
**A.** Its binding is “binds”.

**Q.** B2 was tested. Which binding did it give?
**A.** Its binding is “binds”.

**Q.** For B3, which binding is on record?
**A.** Its binding is “binds”.
